Experimental findings from article doi:10.1101/2022.11.29.518402 (bioRxiv, 2022) are described below.

Protein sequences, listed by entry. Tags and fused reporters are not part of them. Residues count along the entry.
UniProt Q5UCC4, residues 26-262: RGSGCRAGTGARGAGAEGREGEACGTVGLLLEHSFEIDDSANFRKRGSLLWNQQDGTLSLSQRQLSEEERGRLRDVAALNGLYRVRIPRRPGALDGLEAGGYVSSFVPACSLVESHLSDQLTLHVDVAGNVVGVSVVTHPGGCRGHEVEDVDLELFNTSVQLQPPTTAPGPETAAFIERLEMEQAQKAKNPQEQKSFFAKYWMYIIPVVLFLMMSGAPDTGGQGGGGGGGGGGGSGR

The target in this experiment is T1, GFP-EMC2 (human) (UniProt Q15006).
T1 sequence: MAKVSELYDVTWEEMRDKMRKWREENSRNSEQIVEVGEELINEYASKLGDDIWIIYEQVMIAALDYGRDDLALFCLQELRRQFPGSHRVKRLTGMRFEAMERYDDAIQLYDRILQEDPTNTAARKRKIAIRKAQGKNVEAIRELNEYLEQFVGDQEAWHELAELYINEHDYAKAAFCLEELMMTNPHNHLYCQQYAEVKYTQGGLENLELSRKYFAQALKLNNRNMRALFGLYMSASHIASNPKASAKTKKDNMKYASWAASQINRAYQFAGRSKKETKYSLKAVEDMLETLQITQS
The experiment is described as follows: co-IP.

These are yes or no findings as the source states them, for the method shown. Binding seen in cells or lysates may run through a third protein. Some results given as binding are weak or reduced against the parent protein; the word gives no strength. Where a sequence is shown, tags or fusion partners need not be part of it.

On to “EMC10 (endogenous) (from UniProt Q5UCC4 26-262)”, for which the binding entry is recorded as “binds”.
